PMC3573112, “Compatibility in the Ustilago maydis–Maize Interaction Requires Inhibition of Host Cysteine Proteases by the Fungal Effector Pit2” (PLoS Pathogens, 2013)

Experiments:
[1] = molecular target: Pit2^Δ49–53 without secretion signal, Gal4 binding domain fusion (Ustilago maydis); assay: two-hybrid
[2] = molecular target: Pit2^mut49–53 without secretion signal, Gal4 binding domain fusion (pGBKT7-Pit2^mut49–53) (Ustilago maydis); assay: two-hybrid

B1: CP2 (corn cysteine protease 2) without signal peptide and prodomain, Gal4 activation domain fusion (pGADT7-CP2) (enzyme, UniProt Q10717 143-360)
chain: LPETKDWREDGIVSPVKNQGHCGSCWTFSTTGALEAAYTQATGKPISLSEQQLVDCGFAFNNFGCNGGLPSQAFEYIKYNGGLDTEESYPYQGVNGICKFKNENVGVKVLDSVNITLGAEDELKDAVGLVRPVSVAFEVITGFRLYKSGVYTSDHCGTTPMDVNHAVLAVGYGVEDGVPYWLIKNSWGADWGDEGYFKMEMGKNMCGVATCASYPIVA
With B1 the binding [1] was “binds” and the binding [2] was “binds”.

No constants are given. Whether binding was seen depends on the method and setting. Binding can be weak; no strength is given. Sequences can lack the tags named with a protein.
